Out of some 53,000 sequences screened, about 3,700 (7%) were called active.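 Rule for the calls: active = gene knockdowns whose robust z-score for IL-1 alpha signal is at least 2 or at most -2, so actives lie on both sides; inactive = the rest.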 Some of the results follow.

The assay in a line: Components of the Cytosolic LPS Sensing Pathway: Gene Identification via Genome-wide siRNA Screen.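 Note: robust z of the log signal after scaling to non-targeting control siRNA wells of the plate.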 As to conditions: RAW264.7 macrophages, IL-1a HTRF, actives lie on both sides, screened at 100 nM (by protocol), cells primed 5 h with Pam3CSK4 first. The gist of the method: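 Using IL-1a HTRF as read-out, the screen measured release from RAW264.7 cells after 48h siRNA knockdown (100 nM), 5 h Pam3CSK4 priming and 24 h cytosolic LipidA. Values were expressed relative to negative-control wells as robust z-scores.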
(In general: In TR-FRET formats the signal depends on donor and acceptor labels being close together.)
With GGUUGAUCUAAAUGAAAUGTT against Idi1, the z-score was inactive: 0.402.
With GGUUAUUUAUGCCCUCAAUTT against Fam184b, the z-score is inactive: 1.58.
GCAAUUUCGUGUGAGAGACTT against Rp2: the z-score was inactive: -0.117.
To GGCCCACAAGGCUGUUUUGTT against Zfp131 belongs inactive: 0.459.
The same measure for GGCCUACGAUAUUUCACAATT against Oosp1: inactive: -0.969; for GGAAGAGAUUUCUAAACUUTT against Mcoln2: inactive: -1.93; for GGAGAAAAACUGAGCAGCCTT against Chst12: inactive: -1.72.
To GCUCUGCUGUAGACGUGAATT against Qrfprl belongs inactive: 1.16; to CCAUUGAACAACUGUCCUATT against Zmynd8, inactive: -0.558.
In the case of GCAACACAUUCCUUAUGAUTT against Entpd6, the z-score was inactive: -0.781.
In the case of GGAACAGCUGAACUGCUCATT against Lmbr1l, the z-score was inactive: 0.0498.
The same measure for CGACAUCUCCCUAGACAAGTT against Itm2c: inactive: 0.515; for CCUUCCUUCGAAUUCGCUCTT against Dynlrb1: inactive: 0.385; for GGAGUACCUAUUUGUCAUCTT against Cnga2: inactive: -0.29.
For GGCACUGUUCGGCAAGAAGTT against Trappc5, the z-score is active: -2.1.
The same measure for GUGGAAAUUAAUCUGGGUUTT against Tmem191c: inactive: 0.394; for GGCCAGUCUUAUGAAAUUCTT against Ubp1: inactive: -0.521.
Take CCUGUUUGUACAUCCUUGGTT against Olfr748: the z-score is inactive: -1.25.
As to GGGUGAGAGAUCCCAAGUUTT against Cypt1, the z-score was inactive: 0.784.
The same measure for GGACAGAGUGAAACUUUAUTT against Pcdhga9: inactive: -0.588; for GGAGAAAGUCAAGAUCAAATT against Gpr4: active: 2.12.
To CCGUGACAGUCAUGUUGAUTT against Amt belongs inactive: 0.235; to CCUUCGGAUACUACUUUUCTT against Olfr531, inactive: -0.732.
To CGCUGGUACCUGAAAUAUUTT against Rnf123 belongs inactive: 1.61; to GGUCCUUGUCUCUCAUGUATT against Snap29, inactive: 0.287; to CCUUACCACAUCCUUGUCGTT against Fcf1, inactive: -1.33.
On to GCGUGUGCUAAUGAAAAUGTT against Fxr1, for which the z-score is inactive: -0.48.
The same measure for GGGAAAGUUAAUAUCAAGATT against Ephb4: inactive: 0.185.
As to GGUAAAAUCACUUCAGAUCTT against Phb, the z-score was active: 2.23.
The same measure for GGAUUUUCAUCGUGCUUUGTT against Necab3: inactive: 1.23; for GGAGGAAGAGAAGUACAUUTT against Khdrbs3: inactive: 1.66.
To GGCUAAGCAAGGCUAUGUCTT against Rpl15 belongs inactive: -1.01; to GGAAUUUACUUACAUCAUGTT against Rbp3, inactive: 0.179.
The same measure for GGAAAAUGACUUCAGCUGGTT against Sfmbt2: inactive: -1.45; for GCUCUAUGUACGCGUUAGATT against Col18a1: inactive: -0.217.
With GCAGAGUCUGGAUCAACAUTT against Efcab14, the z-score is inactive: -0.583.
In the case of GGCACCUCUGCUUUUAAAGTT against Mrm2, the z-score is inactive: 0.926.
The same measure for GGUCAGAGAACUCUCUACATT against Zfp68: inactive: -1.24; for “GGAUCCACAAGGAAUUUAUTT against 9530003J23Rik”: inactive: 0.0919; for GGAUCUAAAGGGUAGUGUCTT against Trim61: inactive: 0.254.
On to GGCUCCGAAUAGGAGAUCATT against Crk, for which the z-score is inactive: 0.348.
To GCCCAAUAGCCUAGGACCUTT against Sh2d7 belongs inactive: -0.1; to GGUGAUUUGCUCAAUCCAATT against Phox2a, inactive: 0.611.
The same measure for GGAUAAUGAUGUGAAAGGCTT against Mrps30: inactive: 0.984; for CAGUAUGGCCCUGUCCUACTT against Hand2: inactive: 0.705; for GGCUAGCUUGGUUCAUUUATT against Oma1: inactive: 1.37.
As for GGAGACUCUUCAAUUGAGCTT against Fam229b, the z-score was inactive: -0.335.
To GGACCUUGCAUUUGCUUACTT against Fez2 belongs inactive: -0.716.
In the case of GGCUCUUACUUCAUCACUATT against Casp4, the z-score is inactive: -1.9.
For GGCCGUGACAAAAUAGUAGTT against Vmn1r228, the z-score was inactive: -0.599.
To GGUUGUGGAAAAUGUUAGGTT against Olfr1054 belongs inactive: -0.644; to GGAAAUUGCCAAACAUUUUTT against Plekhg3, inactive: -0.36.
To GGAUCAUGGAUGUAUAAAGTT against Lrrn4 belongs inactive: -1.25.
To GAUGGACAAACGGAAGUGCTT against Iapp belongs inactive: 0.322; to GCUUAGGUAAUUUCAAGGUTT against Ppp1r15b, inactive: 1.31; to GGGACCAACUCCUAACAGATT against Csf2rb, inactive: -1.28.
For GCAUAAUAGCGCAAGCUACTT against Ifi47, the z-score was inactive: 0.0047.
The same measure for GCAACCAUCUGAUGAUUAATT against Pp2d1: inactive: 1.83.
For the sequence GCUUGUGAAUUAAUGAACATT against Farsb, the z-score is inactive: -0.625.
Consider CCAGCAAAUGGAUAACUUGTT against Epas1, for which the z-score is inactive: 1.49.
For the sequence GGUGGAGCUCAGUAUUCUGTT against Nrsn1, the z-score was inactive: -0.28.
To “GGAGGCUUUCUUCAGAAUGTT against Vmn1r-ps103” belongs inactive: 0.998.
To GCCGAUCAGAUGUAAUUCUTT against Cd276 belongs inactive: -1.52.
As to GCUAUGUUAUCACCACCAATT against Kcnab3, the z-score was inactive: 0.114.
Consider GGAGGAAGUGUUUUUCUCCTT against Psg27, for which the z-score was inactive: -1.18.
Take AGUCUUCACGUUUCAUUUATT against Olfr1195: the z-score is inactive: 0.32.
The same measure for CCAGUUGUAUAUGGUGUAGTT against Neurl4: inactive: -0.267; for CGACAUGACCAAGAACGAUTT against Zyx: inactive: -1.25.

(Values after PubChem BioAssay AID1508600 (Functional Genomics Laboratory (NCATS/FGL), 2020).)
